Here are results for one molecule from PMC10832218.

Chains of the proteins cited; added tags and fusions are not shown.
UniProt Q8CHI8: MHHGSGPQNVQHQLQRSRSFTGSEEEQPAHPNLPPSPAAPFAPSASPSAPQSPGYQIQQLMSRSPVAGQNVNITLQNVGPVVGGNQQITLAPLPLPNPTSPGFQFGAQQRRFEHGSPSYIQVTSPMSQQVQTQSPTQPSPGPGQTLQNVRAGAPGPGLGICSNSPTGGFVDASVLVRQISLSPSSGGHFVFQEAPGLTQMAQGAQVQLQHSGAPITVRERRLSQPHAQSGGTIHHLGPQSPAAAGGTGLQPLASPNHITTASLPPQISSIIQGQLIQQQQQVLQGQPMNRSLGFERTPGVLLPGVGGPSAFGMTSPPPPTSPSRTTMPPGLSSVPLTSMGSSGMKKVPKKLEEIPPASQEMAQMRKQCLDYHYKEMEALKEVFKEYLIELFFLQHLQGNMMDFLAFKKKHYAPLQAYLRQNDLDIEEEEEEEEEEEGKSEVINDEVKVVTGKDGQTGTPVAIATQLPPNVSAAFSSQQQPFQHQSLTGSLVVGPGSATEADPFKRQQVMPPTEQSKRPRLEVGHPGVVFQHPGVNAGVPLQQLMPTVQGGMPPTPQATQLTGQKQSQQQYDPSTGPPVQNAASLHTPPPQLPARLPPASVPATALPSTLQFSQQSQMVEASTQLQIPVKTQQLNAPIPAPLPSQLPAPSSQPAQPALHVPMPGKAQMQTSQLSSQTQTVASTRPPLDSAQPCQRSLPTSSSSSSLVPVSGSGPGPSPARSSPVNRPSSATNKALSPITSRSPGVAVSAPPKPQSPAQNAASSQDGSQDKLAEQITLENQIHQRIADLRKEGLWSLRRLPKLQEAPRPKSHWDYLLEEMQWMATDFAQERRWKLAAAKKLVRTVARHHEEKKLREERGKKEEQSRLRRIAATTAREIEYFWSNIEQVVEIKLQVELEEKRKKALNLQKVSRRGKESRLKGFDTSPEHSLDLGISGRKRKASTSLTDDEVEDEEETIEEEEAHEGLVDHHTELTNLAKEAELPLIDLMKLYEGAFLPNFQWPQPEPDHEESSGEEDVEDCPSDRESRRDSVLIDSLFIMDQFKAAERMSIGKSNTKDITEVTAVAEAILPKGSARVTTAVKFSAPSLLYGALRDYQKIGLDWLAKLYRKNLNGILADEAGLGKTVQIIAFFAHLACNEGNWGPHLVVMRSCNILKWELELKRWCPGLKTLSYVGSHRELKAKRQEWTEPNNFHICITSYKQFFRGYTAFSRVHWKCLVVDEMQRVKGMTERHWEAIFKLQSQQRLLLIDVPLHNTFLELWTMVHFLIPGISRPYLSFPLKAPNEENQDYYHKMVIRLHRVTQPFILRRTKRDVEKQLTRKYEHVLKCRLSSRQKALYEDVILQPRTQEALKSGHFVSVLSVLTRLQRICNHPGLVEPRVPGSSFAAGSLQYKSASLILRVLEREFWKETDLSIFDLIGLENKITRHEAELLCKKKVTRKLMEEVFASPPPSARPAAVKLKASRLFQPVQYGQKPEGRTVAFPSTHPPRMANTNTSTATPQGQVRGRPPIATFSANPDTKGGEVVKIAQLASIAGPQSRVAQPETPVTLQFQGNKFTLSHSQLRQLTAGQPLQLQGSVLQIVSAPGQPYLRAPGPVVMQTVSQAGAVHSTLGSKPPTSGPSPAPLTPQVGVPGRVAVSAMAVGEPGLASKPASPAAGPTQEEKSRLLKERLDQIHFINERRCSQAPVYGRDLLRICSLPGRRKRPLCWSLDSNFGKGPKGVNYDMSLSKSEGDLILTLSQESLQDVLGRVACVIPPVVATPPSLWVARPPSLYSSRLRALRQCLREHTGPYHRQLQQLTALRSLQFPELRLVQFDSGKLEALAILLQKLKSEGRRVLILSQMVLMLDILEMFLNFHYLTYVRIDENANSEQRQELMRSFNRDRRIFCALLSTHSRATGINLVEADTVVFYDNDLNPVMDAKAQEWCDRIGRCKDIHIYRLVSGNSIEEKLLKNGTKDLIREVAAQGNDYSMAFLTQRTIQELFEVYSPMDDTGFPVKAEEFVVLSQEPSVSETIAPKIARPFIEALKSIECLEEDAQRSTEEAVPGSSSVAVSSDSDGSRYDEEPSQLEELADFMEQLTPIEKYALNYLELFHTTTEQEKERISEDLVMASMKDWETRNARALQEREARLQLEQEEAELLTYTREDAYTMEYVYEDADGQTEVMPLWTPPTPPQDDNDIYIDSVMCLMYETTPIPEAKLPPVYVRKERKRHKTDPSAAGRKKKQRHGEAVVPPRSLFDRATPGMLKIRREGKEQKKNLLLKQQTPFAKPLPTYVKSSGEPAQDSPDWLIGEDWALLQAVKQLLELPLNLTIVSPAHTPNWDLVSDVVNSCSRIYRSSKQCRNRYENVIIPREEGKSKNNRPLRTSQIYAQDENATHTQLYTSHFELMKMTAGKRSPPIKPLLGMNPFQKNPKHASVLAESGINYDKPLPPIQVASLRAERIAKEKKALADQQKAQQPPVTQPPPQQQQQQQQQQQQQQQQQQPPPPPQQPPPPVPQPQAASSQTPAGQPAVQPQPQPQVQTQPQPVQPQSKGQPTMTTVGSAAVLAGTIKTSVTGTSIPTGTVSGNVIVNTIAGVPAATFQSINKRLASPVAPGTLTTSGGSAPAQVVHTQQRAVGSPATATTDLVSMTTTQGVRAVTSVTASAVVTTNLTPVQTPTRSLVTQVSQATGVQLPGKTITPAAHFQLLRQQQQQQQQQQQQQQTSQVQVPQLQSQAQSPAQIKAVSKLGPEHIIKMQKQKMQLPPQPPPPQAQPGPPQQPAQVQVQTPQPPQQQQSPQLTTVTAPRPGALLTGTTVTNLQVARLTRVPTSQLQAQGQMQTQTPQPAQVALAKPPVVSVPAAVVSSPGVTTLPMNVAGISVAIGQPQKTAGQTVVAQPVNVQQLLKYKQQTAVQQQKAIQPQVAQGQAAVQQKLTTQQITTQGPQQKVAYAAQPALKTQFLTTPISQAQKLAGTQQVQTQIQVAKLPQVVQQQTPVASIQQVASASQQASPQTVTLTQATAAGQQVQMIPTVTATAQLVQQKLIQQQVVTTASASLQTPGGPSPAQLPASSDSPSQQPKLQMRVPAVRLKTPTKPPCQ

In the assay the target is p400 (mouse (endogenous in NIH3T3)) (UniProt Q8CHI8). The experiment in a line: co-IP; Nuclear Complex Co-IP Kit (Active Motif); 200 ug nuclear extract of NIH3T3 + BORIS (clone#2) cells with 3 ug antibody overnight at 4 C, Protein G beads, low salt and detergent IP buffers; extracts with or without benzonase (125 U/mL, on ice, 90 min); Western blot. (In general: In western blotting, separated proteins are transferred to a membrane and probed.)

Results are given in words; binding and its absence hold for the method and conditions named. In cells and extracts the contact can be indirect.

B1: BORIS (Brother of Regulator of Imprinted Sites) (protein, UniProt Q8NI51 1-663)
chain: MAATEISVLSEQFTKIKELELMPEKGLKEEEKDGVCREKDHRSPSELEAERTSGAFQDSVLEEEVELVLAPSEESEKYILTLQTVHFTSEAVELQDMSLLSIQQQEGVQVVVQQPGPGLLWLEEGPRQSLQQCVAISIQQELYSPQEMEVLQFHALEENVMVASEDSKLAVSLAETTGLIKLEEEQEKNQLLAERTKEQLFFVETMSGDERSDEIVLTVSNSNVEEQEDQPTAGQADAEKAKSTKNQRKTKGAKGTFHCDVCMFTSSRMSSFNRHMKTHTSEKPHLCHLCLKTFRTVTLLRNHVNTHTGTRPYKCNDCNMAFVTSGELVRHRRYKHTHEKPFKCSMCKYASVEASKLKRHVRSHTGERPFQCCQCSYASRDTYKLKRHMRTHSGEKPYECHICHTRFTQSGTMKIHILQKHGENVPKYQCPHCATIIARKSDLRVHMRNLHAYSAAELKCRYCSAVFHERYALIQHQKTHKNEKRFKCKHCSYACKQERHMTAHIRTHTGEKPFTCLSCNKCFRQKQLLNAHFRKYHDANFIPTVYKCSKCGKGFSRWINLHRHSEKCGSGEAKSAASGKGRRTRKRKQTILKEATKGQKEAAKGWKEAANGDEAAAEEASTTKGEQFPGEMFPVACRETTARVKEEVDEGVTCEMLLNTMDK
With B1, the binding result is “no binding”.
